Laboratory results from article PMC10252594 (Cancers, 2023).

Test system: LAPC-4 cells
Experiment: LAPC-4 cell viability proliferation and combination index assays (MTS, 6 days)
Assay type: cell-based
Conditions: Homo sapiens, LAPC4, 144 h, LAPC-4, six days; single drugs and 1:1 combinations; read-out: IC50 (Figure 2B)
Protocol: LAPC-4 cells (1 × 10^4 cells/well) were seeded in triplicate in 96-well plates in IMDM (Iscove’s modified Dulbecco’s medium) (90 μL) supplemented (v/v) with 5% fetal FBS, 1% L-glutamine, 1% insulin, and 1% penicillin/streptomycin. The cells were incubated at 37 °C in a 5% CO2 humidified atmosphere for 24 h. […] After 6 days of incubation, the cell proliferation was determined by adding 10 µL of MTS followed by incubation at 37 °C for 4 h. Plates were then analyzed at 490 nm using a Tecan M-200 microplate reader (Männedorf, Switzerland). Using GraphPad Prism 7 software, the IC50 values were calculated. The values represent the average of two independent experiments performed in triplicate. According to the Chou–Talalay method and using the following formula, the CI (combination) was calculated. CI=(D)1/(DX)1+(D)2/(DX)2
Denominators (DX)l and (DX)2 are the doses of individual drugs required to achieve a given effect level, and numerators (D)1 and (D)2 are the concentrations of each drug present in combination to trigger the same effect level. When the drugs interact additively, CI = 1, but a CI < 1 indicates a synergistic interaction, and a CI > 1 indicates an antagonistic effect.

CNC(=O)c1ccc(N2C(=S)N(c3ccc(C#N)c(C(F)(F)F)c3)C(=O)C2(C)C)cc1F [enzalutamide, reference compound]
IC50: 34.8 µM
